Molecules are shown by their SMILES. “And” between values parts separate entries of the source, which are not always exact repeats. Equal entries are not always repeated. The list shows a part of the results. Shown are side measurements of this screen, not its main read-out; they come without a call. Most of these compounds were active or inconclusive in the main read-out, so they are no random draw. Words in brackets tell the shape of the fitted curve; partial curves, single points and poor fits give uncertain potencies.

The nature of this assay: qHTS Assay for Modulators of Lamin A Splicing. The conditions noted are these: HeLa LMNA splicing GFP/RFP minigene ratio, 48 h. A digest of the protocol:
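S3 HeLa stable clones carrying a lamin A-EGFP splicing minigene plus DsRed2 were seeded at 600 cells/well in Opti-MEM with 2% FBS, pin-dosed and incubated 48 h at 37°C. Acumen cytometry (488 nm) gave the GFP/RFP total-intensity ratio.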

Where [1] appears, read: measured here: RFP viability control channel.
The mark [2] stands for this setting: measured here: GFP splicing reporter channel.

As to `CC(C)C(=O)NNC(=O)CSc1nc(C2CCCCC2)nc2ccccc12`, the AC50 under setting [1] is 3.98 µM [rising, full curve, poor fit].

Take `CCC(C)(C)NC(=O)c1cc(S(=O)(=O)N2CCCCC2)ccc1N1CCOCC1`: the concentration at half-maximal activity (AC50) under setting [2] was 0.891 µM [falling, full curve, poor fit] and the AC50 under setting [1] is 0.0316 µM [falling, full curve, poor fit].

Take `COc1ccc(C2=CC(c3cc(OC)c(OC)c(OC)c3)NC(=S)N2)cc1` (stereo not drawn): under setting [1], the AC50 is 35.5 µM [rising, single point].

On to `Cc1noc(C)c1S(=O)(=O)Nc1ccc(C(=O)N2CCc3ccccc3C2)cc1`, for which the AC50 is 10 µM [rising, partial curve, poor fit] under setting [2] and 12.6 µM [rising, partial curve, poor fit] under setting [1].

Consider `c1ccc2sc(Nc3nc4cc5c(cc4s3)OCO5)nc2c1`, for which the AC50 was 22.4 µM [rising, partial curve, poor fit] under setting [2] and 17.8 µM [rising, partial curve, poor fit] under setting [1].

As to `COc1ccc(OC)c(CN2CCC(C(=O)N3CCN(c4ccccc4F)CC3)CC2)c1`, the AC50 is, setting by setting: under setting [2], 35.5 µM [rising, single point]; under setting [1], 35.5 µM [rising, single point].

For the molecule `CCN(CC)C(=O)CCCC(=O)N(CC)CC`, under setting [1], the AC50 is 2.51 µM [falling, full curve].

In the case of `CCOC(=O)c1sc(NC(=O)CCSC)nc1C`, the AC50 under setting [1] was 3.98 µM [falling, single point].

As for `Cc1ccc(Cc2nc3ccccc3nc2SCC(=O)N2CCCCC2)cc1`, the AC50 under setting [1] is 17.8 µM [rising, single point].

`CCOc1ccccc1NC(=O)c1c(NCc2ccc(C)o2)sc2c1CCCCC2`: under setting [1], the AC50 is 10 µM [rising, partial curve].

For the molecule `CCOC(=O)CSc1ncnc2c1cnn2-c1ccc(Cl)cc1`, the AC50 under setting [1] is 35.5 µM [rising, single point].

For the molecule `Oc1ccc(/C=C\c2cc(O)cc(O)c2)cc1`, the AC50 under setting [2] was 6.31 µM [falling, partial curve].

`Cc1cc(O)ccc1Nc1nc2ccccc2nc1Nc1ccc(O)cc1C`: the AC50 under setting [1] is 10 µM [rising, single point].

Regarding `Nc1cccc(C2=Nc3cccc4cccc(c34)N2)c1`, the AC50 under setting [1] is 0.447 µM [rising, full curve, poor fit].

Regarding `Cc1sc(N/N=C/c2ccco2)nc1-c1ccccc1`, the AC50 under setting [2] was 35.5 µM [rising, single point].

Take `COc1ccccc1CNc1ncnc2ccc(-c3cccc(NS(C)(=O)=O)c3)cc12`: the AC50 under setting [2] was 14.1 µM [falling, partial curve] and the AC50 under setting [1] is 17.8 µM [falling, partial curve].

Take `CCn1c(SCC(=O)N/N=C/c2cc(OC)c(OC)c(OC)c2)nc2ccccc21`: the AC50 was 11.2 µM [rising, partial curve] under setting [2] and 20 µM [rising, partial curve] under setting [1].

`CCOc1ccc(OCCCCn2ccnc2)cc1`: the AC50 under setting [2] was 11.2 µM [rising, partial curve] and the AC50 under setting [1] was 12.6 µM [rising, partial curve].

For `CCOC(=O)c1c(NC(=O)CCl)sc(C(=O)N(CC)CC)c1C`, under setting [1], the AC50 is 12.6 µM [rising, partial curve].

For `O=C(c1cccc(NS(=O)(=O)c2cccc(F)c2)c1)N1CCN(c2ccccc2)CC1`, the AC50 under setting [1] is 17.8 µM [rising, single point].

On to `COC(=O)c1c(NC(=S)Nc2cc(OC)c(Cl)cc2OC)sc2c1CCCCC2`, for which the AC50 under setting [1] was 12.6 µM [rising, partial curve].

Take `O=C(NCCc1ccc(Cl)cc1)c1cnc2n(c1=O)CCS2`: the AC50 under setting [1] was 35.5 µM [rising, single point].

`COc1ccc2ccccc2c1C(=O)/C=C\c1ccoc1`: the AC50 reads like this: under setting [2], 12.6 µM [rising, single point]; under setting [1], 14.1 µM [rising, partial curve].

For the molecule `CC1Cc2cc(S(=O)(=O)NCc3ccc(F)cc3)ccc2N1C(=O)C1CCC1` (stereo not drawn), the AC50 under setting [1] was 0.0398 µM [falling, full curve].

With `CN1CCC(=C2c3ccccc3C=Cc3ccccc32)CC1`, the AC50 under setting [2] is 5.62 µM [falling, partial curve, poor fit] and 17.8 µM [rising, single point]; the AC50 under setting [1] is 5.62 µM [falling, single point] and 17.8 µM [rising, partial curve, poor fit].

As for `Cc1c(Cl)cccc1NC(=S)NCCc1ccc(C(F)(F)F)cc1`, the AC50 was 12.6 µM [falling, single point] under setting [2] and 25.1 µM [falling, single point] under setting [1].

Take `COc1ccc(N(CC(=O)NCc2ccc(C)cc2)S(=O)(=O)c2c(C)nn(C)c2C)cc1`: the AC50 under setting [2] is 31.6 µM [rising, single point].

In the case of `O=C(NCCOc1ccccc1F)c1ccccc1SCc1ccc(F)cc1`, the AC50 under setting [2] was 11.2 µM [rising, single point] and the AC50 under setting [1] is 14.1 µM [rising, single point].

`Cc1nonc1C(=O)N/N=C/c1ccc(O)cc1O`: the AC50 under setting [2] is 0.316 µM [rising, full curve, poor fit].

For the molecule `Cc1ccc(NC(=O)C2CCN(c3nc4ccccc4[nH]3)CC2)cc1Cl`, the AC50 under setting [1] is 11.2 µM [falling, partial curve, poor fit].

As to `CN(C(=O)c1cccc(Nc2ccc(-c3ccc4c(c3)OCCO4)nn2)c1)C1CCCCC1`, under setting [1], the AC50 is 12.6 µM [rising, partial curve, poor fit].

In the case of `O=C(CSc1nc2c([nH]c3ccccc32)c(=O)n1-c1ccc(F)cc1)N1CCCCCC1`, the AC50 runs as follows: under setting [2], 15.8 µM [falling, partial curve, poor fit]; under setting [1], 22.4 µM [falling, single point].

As for `Cc1ccc(NC(=O)COc2ccc(CCO)cc2-n2nc3ccccc3n2)cc1C`, the AC50 runs as follows: under setting [2], 8.91 µM [rising, partial curve]; under setting [1], 11.2 µM [rising, partial curve].

Turning to `CN1C(=O)C2CCCCN2c2ccc(C(=O)NCc3ccccc3Br)cc21` (stereo not drawn), the AC50 runs as follows: under setting [2], 7.08 µM [falling, partial curve]; under setting [1], 35.5 µM [rising, single point].

As for `CC(C)(C)C1CCc2c(sc3c2C(=O)NC(c2ccco2)N3)C1` (stereo not drawn), the AC50 runs as follows: under setting [2], 35.5 µM [rising, single point]; under setting [1], 35.5 µM [rising, single point].

As for `Cc1cc(C(=O)CC#N)c(C)n1-c1ccc(OC(F)F)cc1`, the half-maximal activity concentration (AC50) by setting is: under setting [2], 8.91 µM [rising, partial curve]; under setting [1], 11.2 µM [rising, partial curve].

As for `Cc1oc(-c2ccccc2Cl)nc1CN1CCCC1c1ccc(F)cc1` (stereo not drawn), the AC50 reads like this: under setting [2], 1.58 µM [falling, full curve, poor fit]; under setting [1], 0.0316 µM [falling, full curve].

On to `NCC(O)C1CCCCCCC1` (stereo not drawn), for which, under setting [1], the AC50 is 5.01 µM [rising, full curve].

In the case of `O=C1CCCN1CN(C(=O)c1ccc2c(c1)OCO2)c1cccc(Cl)c1`, the AC50 runs as follows: under setting [2], 8.91 µM [rising, partial curve, poor fit]; under setting [1], 11.2 µM [rising, single point].

For the molecule `CC1Cc2ccccc2N1C(=O)CN1CCC(n2nnc3cc(C(F)(F)F)ccc32)CC1` (stereo not drawn), under setting [1], the AC50 is 31.6 µM [rising, single point].

Turning to `Cc1ccc(C(=O)c2cc([N+](=O)[O-])ccc2N2CCOCC2)cc1`, the AC50 under setting [1] was 3.98 µM [rising, full curve].

Turning to `Fc1ccc(C(c2nnnn2C2CCCC2)N(Cc2ccco2)CC2CCCO2)cc1` (stereo not drawn), the AC50 under setting [1] is 35.5 µM [rising, single point].

Turning to `O=C(O)/C=C\C(=O)Nc1ccccc1C#Cc1ccccc1`, the AC50 runs as follows: under setting [2], 25.1 µM [falling, single point]; under setting [1], 35.5 µM [falling, single point].

As for `Cc1nn(-c2ccccc2)c(C)c1NC(=O)COc1ccc(Cl)cc1Cl`, the half-maximal activity concentration (AC50) runs as follows: under setting [2], 2.51 µM [rising, full curve]; under setting [1], 6.31 µM [rising, full curve].

`Cc1cccc2sc(N(Cc3cccnc3)C(=O)C3CCCCC3)nc12`: the AC50 under setting [2] was 3.16 µM [falling, partial curve, poor fit].

As to `Brc1ccc(C2Nc3cccc4cccc(c34)N2)s1`, the AC50 under setting [1] was 1.12 µM [rising, full curve, poor fit].

With `O=C(/C=C/c1ccccc1)NCCC1=CCCCC1`, under setting [1], the AC50 was 14.1 µM [rising, partial curve].

For `CC(=O)Nc1cccc(NC(=O)COc2nncc3ccccc23)c1`, the AC50 under setting [1] is 35.5 µM [rising, single point].

On to `COc1cccc(CNC(=O)Nc2cccs2)c1`, for which the AC50 under setting [1] is 17.8 µM [rising, single point].

Turning to `CC1CC(C)CN(C(=O)CSc2nnc(-c3ccc(Cl)s3)o2)C1` (stereo not drawn), the AC50 under setting [1] is 3.55 µM [rising, partial curve, poor fit].

Turning to `CCn1c(SCc2ccccc2Cl)nc2nc3c(cc2c1=O)CCCC3`, the AC50 reads like this: under setting [2], 3.16 µM [falling, single point]; under setting [1], 1.12 µM [rising, partial curve, poor fit].

With `O=C(c1c(Cl)nc2sccn12)N1CCN(c2cccc(Cl)c2)CC1`, the AC50 by setting is: under setting [2], 10 µM [rising, partial curve, poor fit]; under setting [1], 7.08 µM [rising, partial curve].

Regarding `Cc1ccc(O)c(Sc2cc(C)ccc2O)c1`, the AC50 under setting [1] is 35.5 µM [rising, single point].

With `CCN(CC)S(=O)(=O)c1ccc(S(=O)(=O)Nc2cc3c(cc2C(C)=O)OCO3)cc1`, under setting [1], the AC50 was 14.1 µM [rising, partial curve, poor fit].

In the case of `COc1ccccc1N1CCN(C(=O)C2c3ccccc3Oc3ccccc32)CC1`, the AC50 under setting [1] is 11.2 µM [rising, partial curve].

Turning to `COc1ccc(NC(=O)CSc2ccccc2)cn1`, the AC50 under setting [1] is 35.5 µM [rising, single point].
